Data published in paper PMC2931529.
Results are given in words; binding and its absence hold for the method and conditions named. Some entries that bind do so weakly or less than the wild type.

Target: T1, signal transducer and activator of transcription 1, tyrosine-phosphorylated (pY701) (human (endogenous in LX-2)), P42224
T1 chain: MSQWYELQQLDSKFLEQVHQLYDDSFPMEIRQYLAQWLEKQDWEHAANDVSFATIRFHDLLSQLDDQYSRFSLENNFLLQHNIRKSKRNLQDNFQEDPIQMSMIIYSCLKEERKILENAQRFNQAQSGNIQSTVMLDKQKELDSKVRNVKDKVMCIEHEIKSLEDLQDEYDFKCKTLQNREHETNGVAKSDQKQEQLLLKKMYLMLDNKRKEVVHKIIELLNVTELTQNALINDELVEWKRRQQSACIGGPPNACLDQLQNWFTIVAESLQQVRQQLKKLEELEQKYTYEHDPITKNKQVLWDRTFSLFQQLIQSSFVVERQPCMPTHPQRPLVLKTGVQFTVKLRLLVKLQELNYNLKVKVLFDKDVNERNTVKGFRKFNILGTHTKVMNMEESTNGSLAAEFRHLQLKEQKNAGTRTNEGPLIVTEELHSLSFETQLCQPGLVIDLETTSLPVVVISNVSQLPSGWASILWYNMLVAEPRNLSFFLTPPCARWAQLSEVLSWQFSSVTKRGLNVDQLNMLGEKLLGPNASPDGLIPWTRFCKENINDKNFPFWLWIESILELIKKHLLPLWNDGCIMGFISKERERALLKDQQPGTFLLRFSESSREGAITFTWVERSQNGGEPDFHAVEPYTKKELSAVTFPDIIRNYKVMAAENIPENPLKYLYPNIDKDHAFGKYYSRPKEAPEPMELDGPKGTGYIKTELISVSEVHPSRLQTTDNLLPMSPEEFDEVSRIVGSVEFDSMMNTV
Assay: native gel or EMSA; nuclear extracts (detergent-free) of LX-2 cells stimulated with 30 ng/mL IL-27, IL-6 (with soluble IL-6 receptor) or IFNγ for the times indicated; DNA-bound STAT dimer species seen by autoradiography/phosphorimager
Details: remark: other sources report otherwise

- binding: binds
B1: signal transducer and activator of transcription 1, tyrosine-phosphorylated (pY701), P42224 1-750 (protein)
chain: T1 chain
modifications: here or on the partner: phosphotyrosine at 701 (pY701); phosphotyrosine at 701 (pY701)
